Experimental data reported in PubChem BioAssay AID504467 (National Center for Advancing Translational Sciences (NCATS), 2011).
Out of some 330,000 compounds screened, about 7,700 (2.3%) were called active. Inconclusive means that the source gave no clear call. Such entries were picked first, then a sample of the others. Calls follow the shape of the dose curve; as a rule, active = well fitted inhibition curve with a large enough effect; inconclusive = small, poorly fitted or top-dose-only effect, or effect the other way; inactive = flat fitted curve, though single readings scatter. Potencies beside an inconclusive call are fits to weak or partial responses and may not hold up.

Assay: qHTS screen for small molecules that inhibit ELG1-dependent DNA repair in human embryonic kidney (HEK293T) cells expressing luciferase-tagged ELG1; also: nearly all actives have a fitted effect of over 55% in size
Details: HEK293T ELG1-luciferase reporter, luminescence, 16 h, DNA damage induced by 5-fluorouridine; activity change, negative = inhibition: at 46.1 µM (top of the series)
Outline: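 HEK293T cells expressing luciferase-tagged ELG1 (2,000/well) received 5-Fluorouridine plus compound or DMSO for 16 hr at 37 °C. Luciferase was read by ONE-Glo luminescence after 30 min at room temperature.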
% is scaled to controls: 0 for no effect and ±100 for the full control effect; potency is read from the fitted curve at half-maximal effect.

| SMILES | activity change, negative = inhibition | Potency |
| --- | --- | --- |
| CCC(=O)N1CCc2cc(Br)cc(S(=O)(=O)N3CCCC(C(=O)NC(C)(C)C)C3)c21 (stereo not drawn) | inactive: -21.1% |  |
| COc1cc([N+](=O)[O-])ccc1N/C=C/C(=O)c1cccs1 |  | inconclusive: 0.461 µM [activator, partial curve, poor fit] |
| NC(=S)N/N=C/c1ccc(-c2ccc(Cl)c(Cl)c2)o1 |  | inconclusive: 29.1 µM [inhibitor, single point] |
| O=C(NNc1ccc([N+](=O)[O-])cc1)C1CC1c1ccccc1 (stereo not drawn) |  | inconclusive: 1.64 µM [inhibitor, partial curve, poor fit] |
| CCOc1ccc(-n2c(SCC(=O)Nc3cc(C(=O)O)ccc3Cl)nc3ccccc3c2=O)cc1 | inactive: 8.71% |  |
| O=C(CN1C(=O)c2ccccc2S1(=O)=O)N1CCCCC1 |  | inconclusive: 18.3 µM [activator, partial curve] |
| COc1ccc(-c2nc(C(N)=O)c3[nH]c(=O)n(-c4cccc(C)c4)c3n2)c(OC)c1 |  | inconclusive: 14.6 µM [inhibitor, partial curve] |
| CC(C)n1cnc2c(NCc3ccccc3)cc(N[C@H](C)CO)cc21 |  | active: 4.11 µM |
| O=C(Nc1cccc2ccccc12)N1CCCN(c2c(Cl)cncc2Cl)CC1 |  | inconclusive: 16.4 µM [inhibitor, single point] |
| COC(=O)c1cccc(NC(=O)c2cccs2)c1C |  | inconclusive: 29.1 µM [activator, partial curve, poor fit] |
| COc1ccccc1OCC(=O)Nc1ccc(Cl)cc1 |  | inconclusive: 18.4 µM [activator, partial curve] |
| COc1nn(CC(=O)N2N=C(C)CC2(O)C(F)(F)F)cc1[N+](=O)[O-] (stereo not drawn) | inactive: 10.8% |  |
| c1cnc2nc(-c3ccc4c(c3)OCO4)cn2c1 |  | inconclusive: 18.3 µM [activator, partial curve] |
| N#C/C(=C(\O)c1ccco1)c1ccccn1 |  | inconclusive: 35.5 µM [activator, single point] |
| O=C(Nc1ccc(C(F)(F)F)cc1)c1ccc2ncsc2c1 |  | inconclusive: 16.4 µM [activator, partial curve] |
| O=C(Nc1ccc2c(c1)OCCO2)c1ccc(Cl)c(S(=O)(=O)N2CCOCC2)c1 |  | inconclusive: 20.6 µM [inhibitor, single point] |
| COc1cc2c(C(F)(F)F)c(-c3ccc(C#N)cc3)oc(=O)c2cc1OC |  | inconclusive: 18.3 µM [activator, single point] |
| Cc1ccc(NC(=O)N2CCc3ccccc3C2)cc1C |  | inconclusive: 7.3 µM [activator, partial curve] |
| Cc1cc(Cl)ccc1OCC(=O)Nc1ccc(CN2CCOCC2)cc1 |  | inconclusive: 20.6 µM [inhibitor, partial curve] |
| CCOC(=O)COc1ccc2cc(C(=O)OCC)c(=O)oc2c1 | inactive: 1.58% |  |
| CCCN1CN=C(Nc2nc3ccccc3o2)NC1 |  | inconclusive: 20.6 µM [activator, partial curve] |
| CCCN1CCC(=O)N([C@H](CSc2ccc(C)cc2)c2ccccc2)CC1 |  | inconclusive: 16.4 µM [activator, partial curve] |

Some of the entries above in a different format:
SMILES | activity change, negative = inhibition | Potency
O=C(NNc1ccc([N+](=O)[O-])cc1)C1CC1c1ccccc1 (stereo not drawn) |  | inconclusive: 1.64 µM [inhibitor, partial curve, poor fit]
CCOc1ccc(-n2c(SCC(=O)Nc3cc(C(=O)O)ccc3Cl)nc3ccccc3c2=O)cc1 | inactive: 8.71% | 

(more compounds)

| SMILES | activity change, negative = inhibition | Potency |
| --- | --- | --- |
| CCc1ccc(Sc2cc(C(=O)NCCN3CCOCC3)c3ccccc3n2)cc1 |  | inconclusive: 16.4 µM [inhibitor, partial curve] |
| O=C(Nc1cccc(Br)c1)c1cccc(OC(=S)N2CCOCC2)c1 |  | active: 14.6 µM |
| COc1ccc(Nc2nc(N)nc(CSc3nnc(C)s3)n2)cc1 |  | inconclusive: 20.6 µM [activator, partial curve] |
| CCc1nc(Sc2nc(C)cc(C)n2)c2oc3ccccc3c2n1 |  | inconclusive: 4.11 µM [inhibitor, full curve] |
| CNc1nc(Nc2ccc(C)c(Cl)c2)c2cnn(C)c2n1 |  | inconclusive: 10.3 µM [inhibitor, partial curve, poor fit] |
| COc1ccc(N2CCN(c3ccc(S(=O)(=O)N(C(C)C)C(C)C)cn3)CC2)cc1 | inactive: -7.84% |  |
| COc1ccc(/C=N/NC(=O)c2ccoc2C)cc1COc1c(C)cccc1C |  | inconclusive: 29.1 µM [activator, single point] |
| COc1ccc(Cc2nnc(SCC(=O)N(C)CC(=O)Nc3ccc(C)cc3)o2)cc1 |  | inconclusive: 14.6 µM [inhibitor, single point] |
| CC(NC(=O)CN1C(=O)NC2(CCCCC2C)C1=O)c1ccccc1 (stereo not drawn) |  | inconclusive: 25.9 µM [activator, partial curve, poor fit] |
| O=C(NCCc1ccc(Cl)cc1)c1cc(-c2ccccn2)nc2ccccc12 |  | inconclusive: 20.6 µM [inhibitor, partial curve, poor fit] |
| O=C(COC(=O)c1cccnc1Cl)Nc1cc(S(=O)(=O)N2CCOCC2)ccc1Cl | inactive: -3.83% |  |
| CCOC(=O)c1sc(NNC(=O)c2ccc(F)cc2)nc1C |  | inconclusive: 29.1 µM [inhibitor, single point] |
| C/C=C/c1ccc(OCCSc2nc(C)cc(=O)[nH]2)c(OC)c1 |  | inconclusive: 22.4 µM [activator, single point] |
| Cc1nc2c(-c3ccc(F)cc3)c(C)[nH]n2c(=O)c1Cl | inactive: -0.873% |  |
| O=C(N[C@@H]1C/C=C\C[C@@H](CC(=O)N(CCO)Cc2ccccc2)C(=O)NCCOC1=O)OCC1c2ccccc2-c2ccccc21 | inactive: -28.1% |  |
| O=C1c2ccccc2C(=O)c2c(NCCCN(CCO)CCO)cccc21 | inactive: -1.93% |  |
| COc1ccc2c(c1)c(CC(=O)NCc1cc([N+](=O)[O-])ccc1O)c(C)n2C(=O)c1ccc(Cl)cc1 |  | inconclusive: 29.1 µM [inhibitor, single point] |
| CCOC(=O)C1CCN(C(=O)Cc2cccc3ccccc23)CC1 |  | inconclusive: 16.4 µM [inhibitor, single point] |
| O=C1c2ccccc2S(=O)(=O)N1CCOc1ccccc1 |  | inconclusive: 20.6 µM [activator, single point] |
| N#C/C(=C\c1ccc(OCCN2CCOCC2)cc1)C(=O)Nc1ccc(S(N)(=O)=O)cc1 | inactive: -2.47% |  |
| O=C(CSc1nnc(-c2ccccc2Cl)o1)N1CCCCC1 |  | inconclusive: 20.6 µM [activator, partial curve] |
